According to patent US8399515B2, “Five and fifteen carbon fatty acids for treating metabolic disorders and as nutritional supplements” (Baylor Research Institute, priority 2003, dated 2013):

Assay: Taste on oral administration
Design: species or system human

In the case of CCCCCCCCCCCCCCC(=O)O [C15, n-pentadecanoic acid], the Taste was “does not have a disagreeable taste”.

For CCCCC(=O)O [C5, n-pentanoic acid], the Taste was “disagreeable taste” and the Taste (listed as tripentanoin) was “very bad taste”.

Like-named read-outs stand apart in the source and are kept apart here.
